The other results are listed elsewhere or left out. Most values come without repeats; read them as rough.
What follows are compounds tested on Geomyces destructans (assay: growth inhibition relative to DMSO control; higher = stronger growth inhibition). Conditions: 10 µM; 15 °C; incubation time 10 days.

| SMILES | growth inhibition [%] |
| --- | --- |
| NC[C@H]1O[C@H](O[C@H]2[C@H](O[C@@H]3O[C@H](CO)[C@@H](O)[C@H]3O)[C@@H](O)[C@H](N)C[C@@H]2N)[C@H](N)[C@@H](O)[C@@H]1O | -9.03 |
| C=C(C)C1Cc2c(ccc(C(=O)O)c2O)O1 (stereo not given) | 29.9 |
| COc1ccc2[nH]cc(CCNC(C)=O)c2c1 | -21.1 |
| O=C([O-])c1ccccc1O.[Na+] | -7.83 |
| C[C@@H]1CC[C@@]2(OC1)O[C@H]1C[C@H]3[C@@H]4CC[C@H]5C[C@@H](O)CC[C@]5(C)[C@H]4C[C@@H](O)[C@]3(C)[C@H]1[C@@H]2C | -2.2 |
| CC(=O)OC1CCC23CC1(C)CCC2C(C)(C)CC3OC(C)=O (stereo not given) | -10.8 |
| COC(=O)C[C@H]1C(C)(C)C(OC(C)=O)[C@]2(O)C=C3C4CC(=O)O[C@@H](c5ccoc5)[C@]4(C)CCC3[C@@]1(C)C2=O (stereo not given in full) | -3.8 |
| Oc1nc2cc(Cl)c(Cl)cc2nc1O | -33.9 |
| CC(=O)O[C@H]1CC[C@]2(C)C3=CC(=O)[C@@]4(C)C(C[C@@H]5OC6(OCC(C)CC6Br)[C@@H](C)[C@@H]54)C3CC[C@H]2C1 (stereo partly drawn) [3beta-ACETOXY-23-BROMO-ISOALLOSPIROST-9 (11)-ENE-12-ONE] | -1.75 |
| CCCC(=O)Nc1ncnc2c1ncn2[C@@H]1O[C@@H]2COP(=O)(O)O[C@H]2[C@H]1OC(=O)CCC | -1.11 |
| CN(C)CCC[C@@]1(c2ccc(F)cc2)OCc2cc(C#N)ccc21 | -9.74 |
| COc1c(C2COc3cc4c(cc3C2=O)CC(O)C(C)(C)O4)ccc2c1CCC(C)(C)O2 (stereo not given) | 3.86 |
| NC(=O)N/N=C/c1ccc([N+](=O)[O-])o1 | -17.8 |
| N=C(N)NCCC[C@@H](NC(=O)[C@@H](N)Cc1ccc(O)cc1)C(=O)O | -6.38 |
| O=C(NCO)c1cccnc1 | -0.163 |
| CO[C@@H]1[C@@H](OC(N)=O)[C@@H](O)[C@H](Oc2ccc3c(O)c(NC(=O)c4ccc(O)c(CC=C(C)C)c4)c(=O)oc3c2C)OC1(C)C | -8.72 |
| C=CCCCCCCCCCCCC(O)CC(O)CO (stereo not given) | -11.3 |
| C/C1=C\CCC(=O)C2CC(C)(C)C2CC1 (stereo not given) | -6.87 |
| CCN1CCN(C(=O)N[C@@H](C(=O)N[C@@H]2C(=O)N3[C@@H]2SC(C)(C)[C@@H]3C(=O)O)c2ccccc2)C(=O)C1=O | -1.55 |
| CC(=O)Oc1cccc(O)c1 | -7.83 |
| COc1cc(/C=C/C(=O)O)cc(OC)c1OC | -15.6 |
| OC[C@H]1O[C@@H](Oc2ccc(O)cc2)[C@H](O)[C@@H](O)[C@@H]1O | -8.34 |

| SMILES | growth inhibition [%] |
| --- | --- |
| Nc1ccc(S(=O)(=O)c2ccc(N)cc2)cc1 | -4.19 |
| OCCN1CCN(CCCN2c3ccccc3Sc3ccc(Cl)cc32)CC1 | -8.69 |
| CCC[C@H](N[C@@H](C)C(=O)N1[C@H](C(=O)O)C[C@@H]2CCCC[C@@H]21)C(=O)OCC | -12.2 |
| Cn1nnnc1SCC1=C(C(=O)O)N2C(=O)[C@@H](NC(=O)[C@H](O)c3ccccc3)[C@H]2SC1 | -7.91 |
| Nc1ccc(C(=O)NCC(=O)O)cc1 | -3 |
| COc1ccc(NS(=O)(=O)c2ccc(N)cc2)nn1 | -4.14 |
| CC1(C)OC(=O)NC1=O | -7.18 |
| CC(=O)Oc1cccc2c1C(=O)c1c(OC(C)=O)cc(C(=O)O)cc1C2=O | -5.2 |
| NC(C(=O)O)C(O)C(=O)O (stereo not drawn) [d,l-threo-3-HYDROXYASPARTIC ACID] | -4.87 |
| COC(=O)C1=CO[C@@H](O[C@@H]2O[C@H](CO)[C@@H](O)[C@H](O)[C@H]2O)[C@@H]2[C@@H](C)[C@@H](O)C[C@H]12 | 12.8 |
| N[C@H]1C(O)O[C@H](CO)[C@@H](O)[C@@H]1O (stereo not given in full) | 31.1 |
| CC(=O)OCC(=O)[C@@]1(O)CCC2C3CC[C@@H]4C[C@H](OC(C)=O)CC[C@]4(C)C3C(=O)C[C@@]21C (stereo not given in full) | -1.72 |
| C[C@@H]1O[C@@H](O[C@H]2[C@H](Oc3cc(O)c4c(=O)cc(-c5ccc(O)cc5)oc4c3)O[C@H](CO)[C@@H](O)[C@@H]2O)[C@H](O)[C@H](O)[C@H]1O | 9.18 |
| CCc1cn([C@H]2C[C@H](O)[C@@H](CO)O2)c(=O)[nH]c1=O | -2.21 |
| CC(=O)[C@H]1CC[C@H]2[C@@H]3CC(=O)C4=CC(=O)CC[C@]4(C)[C@H]3CC[C@]12C | -25.1 |
| CC(NCCC(c1ccccc1)c1ccccc1)c1ccccc1 (stereo not given) | 0.8 |
| NCCCCC(N)C(=O)NC(Cc1c[nH]c2ccccc12)C(=O)NC(CCCCN)C(=O)O (stereo not given) | -3.8 |
| Cc1c(N(C)CS(=O)(=O)O)c(=O)n(-c2ccccc2)n1C | -13.2 |
| NNc1nncc2ccccc12 | 3.29 |
| CC(=O)OCC(CCn1cnc2cnc(N)nc21)COC(C)=O | -33.9 |
| NCC(O)CC(=O)O (stereo not given) | -2.21 |
| C[C@H](CCC(=O)O)[C@H]1CC[C@H]2[C@@H]3[C@H](O)C[C@@H]4C[C@H](O)CC[C@]4(C)[C@H]3CC[C@]12C | -8.24 |

| SMILES | growth inhibition [%] |
| --- | --- |
| Cn1c(=O)[nH]c2[nH]cnc2c1=O | -3.64 |
| COc1ccc(-c2coc3c(OC)c(OC)ccc3c2=O)cc1 | -6.9 |
| COc1c2occc2c(OC)c2c(=O)cc(C)oc12 | 5.43 |
| C1CNCCN1 | -6.78 |
| O=c1oc2ccccc2c(O)c1Cc1c(O)c2ccccc2oc1=O | -6.87 |
| COC(=O)/C=C/C(C)=C\C=C\C(C)=C\C=C\C=C(C)\C=C\C=C(C)\C=C\C(=O)O | -8.61 |
| CC(=O)O[C@H]1CC[C@@]2(C)[C@@H](CC[C@@H]3[C@@H]2CC(=O)[C@]2(C)[C@@H]4[C@H](C[C@@H]32)O[C@]2(CC[C@@H](C)CO2)[C@H]4C)C1 | -8.7 |
| O=C1c2ccccc2C(=O)c2c1ccc(O)c2O | 9.83 |
| CC(=O)Oc1cc(OC(C)=O)c2c(c1)O[C@H](c1ccc(OC(C)=O)c(OC(C)=O)c1)[C@H](OC(C)=O)C2 | -7.21 |
| CN1CCN(CCCN2c3ccccc3Sc3ccc(Cl)cc32)CC1 | -11.2 |
| COc1cc(-c2coc3cc(O[C@@H]4O[C@H](CO)[C@@H](O)[C@H](O)[C@H]4O)c(OC)c(O)c3c2=O)cc(O)c1OC | -7.36 |
| OC[C@H]1O[C@@H](Oc2cc(O)cc(/C=C/c3ccc(O)cc3)c2)[C@H](O)[C@@H](O)[C@@H]1O | -6.59 |
| CC(C)C[C@@H](NC(=O)[C@H](C)NC(=O)CNC(=O)[C@@H](NC=O)C(C)C)C(=O)N[C@@H](C)C(=O)N[C@@H](C(=O)N[C@H](C(=O)N[C@H](C(=O)N[C@@H](Cc1c[nH]c2ccccc12)C(=O)N[C@H](CC(C)C)C(=O)N[C@@H](Cc1c[nH]c2ccccc12)C(=O)N[C@H](CC(C)C)C(=O)N[C@@H](Cc1c[nH]c2ccccc12)C(=O)N[C@H](CC(C)C)C(=O)N[C@@H](Cc1c[nH]c2ccccc12)C(=O)NCCO)C(C)C)C(C)C)C(C)C | -5.91 |
| O=c1c(O)c(-c2ccc(O)cc2O)oc2cc(O)cc(O)c12 | -1.89 |
| O=c1c(O)c(-c2ccccc2)oc2cc(O)ccc12 | -10.1 |
| O=C1OCCN1/N=C/c1ccc([N+](=O)[O-])o1 | 1.16 |
| NC(=O)c1ccc([N+](=O)[O-])cc1Cl | -10.6 |
| c1ccc([C@H]2CN3CCSC3=N2)cc1 | -16.2 |
| CCC(=O)O[C@]1(C(=O)CCl)[C@@H](C)C[C@H]2[C@@H]3CCC4=CC(=O)C=C[C@]4(C)[C@@]3(F)[C@@H](O)C[C@@]21C | -1.58 |
| O=C1C[C@@H](c2ccc(O)cc2)Oc2cc(O)cc(O)c21 | 1.95 |
| CC(C)NCC(O)c1ccc2ccccc2c1 (stereo not given) | -10.2 |
| CC(=O)O[C@]1(C(C)=O)CC[C@H]2[C@@H]3C[C@H](C)C4=CC(=O)CC[C@]4(C)[C@H]3CC[C@@]21C | 5.74 |

Structures listed so far with a nitro group on carbon:

| SMILES | growth inhibition [%] |
| --- | --- |
| NC(=O)N/N=C/c1ccc([N+](=O)[O-])o1 | -17.8 |
| O=C1OCCN1/N=C/c1ccc([N+](=O)[O-])o1 | 1.16 |
| NC(=O)c1ccc([N+](=O)[O-])cc1Cl | -10.6 |

4 entries from above, ordered by length of the SMILES, descending:

| SMILES | growth inhibition [%] |
| --- | --- |
| OC[C@H]1O[C@@H](Oc2cc(O)cc(/C=C/c3ccc(O)cc3)c2)[C@H](O)[C@@H](O)[C@@H]1O | -6.59 |
| O=c1c(O)c(-c2ccc(O)cc2O)oc2cc(O)cc(O)c12 | -1.89 |
| O=c1oc2ccccc2c(O)c1Cc1c(O)c2ccccc2oc1=O | -6.87 |
| Cn1c(=O)[nH]c2[nH]cnc2c1=O | -3.64 |

Continued:

| SMILES | growth inhibition [%] |
| --- | --- |
| CN(C)c1nc(N(C)C)nc(N(C)C)n1 | -2.21 |
| CC(=O)Oc1ccc2c(c1)CCC1C2CC[C@]2(C)C(=O)CCC12 (stereo not given in full) | -9.26 |
| O=C(Nc1ccccc1)Nc1ccccc1 | -0.0787 |
| COc1cc([C@@H]2c3cc4c(cc3[C@@H](O[C@@H]3O[C@@H]5CO[C@@H](C)O[C@H]5[C@H](O)[C@H]3O)[C@H]3COC(=O)[C@H]23)OCO4)cc(OC)c1O | -5.26 |
| CCCNCC(O)COc1ccccc1C(=O)CCc1ccccc1 (stereo not given) | -10.1 |
| CS(=O)(=O)CCCCN=C=S | -1.27 |
| C[C@H]1C[C@@H]2[C@H]([C@@H](O)C[C@@]3(C)[C@H]2CC[C@]3(O)C(=O)CO)[C@@]2(C)C=CC(=O)C=C12 | 1.94 |
| CC[C@H]1OC(=O)[C@H](C)[C@@H](O[C@H]2C[C@@](C)(OC)[C@@H](O)[C@H](C)O2)[C@H](C)[C@@H](O[C@@H]2O[C@H](C)C[C@H](N(C)C)[C@H]2O)[C@](C)(O)C[C@@H](C)[C@@H]2N[C@@H](COCCOC)O[C@H]([C@H]2C)[C@]1(C)O | -3.25 |
| CC(C)/C(O)=C1/C(=O)O[C@@H](c2ccoc2)[C@]2(C)C(O)[C@@H](O)[C@@]34OC5(C)OC67CC(C)(C(O)[C@]6(O)[C@@H](O)[C@]3(O5)C12)[C@H](CC(=O)O)[C@]74C (stereo not given in full) | -13.3 |
| CC1(C)CC[C@]2(C(=O)O)CC[C@]3(C)C(=CC[C@@H]4[C@@]5(C)CC[C@H](O)[C@@](C)(CO)[C@@H]5CC[C@]43C)[C@@H]2C1 | 0.283 |
| COc1ccc(-c2c(OC)c3c(OC)c4c(cc3oc2=O)OC(C)(C)C=C4)cc1 | 10.8 |
| O=c1cc[nH]c(=S)[nH]1 | 2.53 |
| CC1Cc2ccccc2N1NC(=O)c1ccc(Cl)c(S(N)(=O)=O)c1 (stereo not given) | 1.61 |
| CCC(=O)c1c(O)cc(O)cc1O | -16.5 |
| CO/N=C(\C(=O)N[C@@H]1C(=O)N2C(C(=O)O)=C(COC(N)=O)CS[C@H]12)c1ccco1 | -30.5 |
| Nc1ccc(S(=O)(=O)Nc2ccnn2-c2ccccc2)cc1 | -3.02 |
| CC(=O)O[C@@H]1CC2C(C)(C)C(=O)C3OC3[C@]2(C)C2CC[C@@]3(C)[C@H](c4ccoc4)OC(=O)C4OC43[C@@]21C (stereo not given in full) | -2.85 |
| CC12CCC(CC1)C(C)(C)O2 | 1 |
| COc1c(O)cccc1O | 2.28 |
